# ± gives the standard deviation. The list shows a part of the results. Many of these values have a large error.
# System: EfPiwi piRISC loaded with L1MC piRNA (26 nt)
# Experiment: pre-steady-state target cleavage rate (min^-1); guide: L1MC piRNA 5'p-UAACUAAAUACUAUGCAAGCUGUAGG; MIWI and MILI are mouse PIWI proteins and EfPiwi is from a freshwater sponge; tags in brackets are library labels; higher = faster piRNA-guided slicing of the target
# Conditions: auxiliary factor: 500 nM Ephydatia muelleri Gtsf1
# Experimental: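 Cleave-'n-Seq: a library of target RNAs (target site in constant flanks) at […] was incubated with 1 nM active freshwater sponge Ephydatia fluviatilis Piwi piRISC (synthetic 5'-monophosphorylated piRNA guide) with or without 500 nM EmGtsf1 at 33 °C for 1 min to 16 h. Uncleaved targets were sequenced and the pooled three trials fitted to a burst-and-steady-state model to give the pre-steady-state cleavage rate (min^-1). Sequence is the target site only. Fits with R² ≤ 0 are excluded.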
row,Sequence,pre-steady-state target cleavage rate
1,UCCUGGAACAGCUUGCAUAGAAUUUAGAAA,0.00137 ± 0.0034
2,UCCUGGAUGUCGAUGGAUAGUAUUAAGUUA,0.000154 ± 0.018
3,UCCUGGUACAGGAUGCAUAGUAUUUAGUAA,0.00412 ± 0.002
4,UCCUGGAUGUCCUUGCAUAGAAUUUAGAUA,0.00162 ± 0.0047
5,UCCUGGAUCAGGAAGCAUAGUAUUUAGAAA,0.00183 ± 0.0061
6,UCCUGGAUGAGCUUCGUUAGUAUUUACAAA,0.000142 ± 0.029
7,UCCUGGAUCAGCUUGCUAGUAUUUAGUUA,0.00126 ± 0.0046
8,UCCUGCUACAGCAUGCAUAGUAUUUAGUUA,0.0124 ± 0.0037
9,UCCUGGAUGUCGUUGCAUAGUAUGUUAGUUA,0.00121 ± 0.0082
10,UCCUGGUACAGCUUGCUUUGUAUUUAGUUA,0.0014 ± 0.0044
11,UCCUGGAUGUGCUUGCAUAGAAAUUAGUUA,0.000492 ± 0.0076
12,UCCUGGAUCAGCUUGCAUAGUAUUUACGUUA,0.0133 ± 0.0044
13,UCCUGGAACAGCUUGGAUAGUAUUUAGAUA,0.00231 ± 0.0029
14,UCCUGCUACAGCUUGCAUAAGUAUUUAGUUA,0.00273 ± 0.0019
15,UCCUGGAACAGCUUGCUUAGUUUUUAGUUA,0.00252 ± 0.0038
16,UCCUGGAUGAGCUUGCAUAGUAUUUAGUAA,0.00367 ± 0.0022
17,UCCUGGUACAGCUUGCAUAGAAUUAAGUUA,0.00454 ± 0.0027
18,UCCUCCUAGAGCUUGGAUAGUAUUUAGUUA,0.0312 ± 0.0067
19,UCCUGGAACAGCUUGCAUAGAUUUUACAAA,0.00312 ± 0.0047
20,UCCUGCUAGAGCUUGCAUACUAUUUAGUUA,0.00515 ± 0.0018
21,UCCUGGAUGAGCUUGCAUUGUAUUUAGAAA,0.00384 ± 0.0021

# Same assay, conditions: auxiliary factor: none (no Gtsf1)
row,Sequence,pre-steady-state target cleavage rate
1,UCCUGGUACAGGAUGCAUAGUAUUUAGUAA,0.000441 ± 0.016
2,UCCUGGAUGUCCUUGCAUAGAAUUUAGAUA,0.000371 ± 0.016
3,UCCUGGAUCAGGAAGCAUAGUAUUUAGAAA,< 0.0001
4,UCCUGGAUGAGCUUCGUUAGUAUUUACAAA,0.000343 ± 0.021
5,UCCUGCUACAGCAUGCAUAGUAUUUAGUUA,0.000796 ± 0.0079
6,UCCUGGAUGUCGUUGCAUAGUAUGUUAGUUA,0.000549 ± 0.021
7,UCCUGGUACAGCUUGCUUUGUAUUUAGUUA,0.000456 ± 0.024
8,UCCUGGAUGUGCUUGCAUAGAAAUUAGUUA,0.00026 ± 0.035
9,UCCUGGAUCAGCUUGCAUAGUAUUUACGUUA,0.011 ± 0.006
10,UCCUGGAACAGCUUGGAUAGUAUUUAGAUA,0.000201 ± 0.045
11,UCCUGGAUGUCGAAGCAAAGUAUAUAGUUA,0.000131 ± 0.07
12,UCCUGCUACAGCUUGCAUAAGUAUUUAGUUA,0.000528 ± 0.0084
13,UCCUGGAACAGCUUGCUUAGUUUUUAGUUA,0.000804 ± 0.012
14,UCCUGGAUGAGCUUGCAUAGUAUUUAGUAA,0.00092 ± 0.01
15,UCCUGGUACAGCUUGCAUAGAAUUAAGUUA,0.000564 ± 0.012
16,UCCUGGAACAGCUUGCAUAGUAUUAUGUUA,0.000594 ± 0.014
17,UCCUGGAACAGCUUGCAUAGAUUUUACAAA,0.000304 ± 0.019
18,UCCUGCUAGAGCUUGCAUACUAUUUAGUUA,0.000777 ± 0.0074
19,UCCUGGAUGAGCUUGCAUUGUAUUUAGAAA,0.000586 ± 0.013

# Reference: the supplement of paper PMC10338343
